Test results reported in PMC12040169 (PLOS Biology, 2025).
The other results are listed elsewhere or left out.

The compounds below were run on T1, CTL2-GFP (C. trachomatis L2/434/Bu, GFP-expressing). Conditions: bulk GFP, single well; 28.5 h, 10 µM; inhibitor.
T1 construct: L2/434/Bu, GFP-expressing
Parameters: species or system HeLa; Intracellular C. trachomatis growth in HeLa cells, bulk GFP fluorescence relative to DMSO
`COc1ccc(C2CC(c3cccc(Br)c3)Nc3ncnn32)cc1OC` (centres unmarked) [CBK294474] was tested, and the “% of control remaining” value was 152.744%.
With `CS(=O)(=O)c1ccc(Cn2ccnc(OC3CCN(C(=O)c4cccc(C#N)c4)CC3)c2=O)cc1` [CBK161810] the “% of control remaining” value was 103.419%.
`Cc1nnc(SCC(=O)N2CCCN(c3ccc(F)cc3)CC2)s1` [CBK306908] was tested, and the “% of control remaining” value was 120.364%.
In the case of `O=C(CN1C(=O)C2C3C=CC(C3)C2C1=O)NCc1ccco1` (centres unmarked) [CBK265116], the “% of control remaining” value is reported as 134.402%.
For `O=C(CSc1nnc(-c2ccccc2)n1-c1ccccc1)N/N=C/c1cccc2cccnc12` [CBK262863], the “% of control remaining” value was 108.006%.
For `CC(Cn1cccn1)NS(=O)(=O)c1ccc(N2CCCC2=O)cc1` (centres unmarked) [CBK305606], the “% of control remaining” value was 128.201%.
In the case of `O=C(O)c1ccc(CCN2CCCC2)nc1` [CBK034220], the “% of control remaining” value is reported as 100.263%.
With `Cc1ccc(OCC(=O)Nc2sc(C)c(C)c2C#N)c([N+](=O)[O-])c1` [CBK268162] the “% of control remaining” value was 128.007%.
With `Cc1ncsc1C(=O)N1CCC[C@H](C(=O)c2cccs2)C1` [CBK284260] the “% of control remaining” value was 109.1%.
With `Clc1ccc(CN2CCC(Oc3cncc(OCc4cccnc4)n3)C2)cc1Cl` (centres unmarked) [CBK084448] the “% of control remaining” value was 117.086%.
`Cc1ccc(OC(C)C(=O)Nc2ccccc2C(=O)N2CCN(C)CC2)cc1` (centres unmarked) [CBK269802] was tested, and the “% of control remaining” value was 127.855%.
With `CN(C)CCN(C)C(=O)c1cc(Br)cnc1N(C)S(C)(=O)=O` [CBK076476] the “% of control remaining” value was 117.431%.
For `O=c1n(-c2ccc(OC(F)(F)F)cc2)ccn1S(=O)(=O)c1ccc(Cl)c(Cl)c1` [CBK106656], the “% of control remaining” value was 100.729%.
For `c1ccc(-c2n[nH]cc2-c2cncn2CCCN2CCCCC2)cc1` [CBK281464], the “% of control remaining” value was 116.054%.
For `CN1CCN(NC(=O)C23CCC(C)(C(=O)O2)C3(C)C)CC1` (centres unmarked) [CBK268285], the “% of control remaining” value was 127.532%.
`O=C(O)c1ccc(-c2ccc(/C=C/c3[nH]c(=O)[nH]c(=O)c3[N+](=O)[O-])o2)cc1Cl` [CBK267139] was tested, and the “% of control remaining” value was 184.387%.
In the case of `N#Cc1c(Oc2cccc(Cl)c2Cl)cccc1C(F)(F)F` [CBK002592], the “% of control remaining” value is reported as 105.965%.
With `CCOCCCNC(=O)c1ncoc1-c1ccc(F)cc1` [CBK282353] the “% of control remaining” value was 130.72%.
With `CC(=O)Nc1ccc(CN(C)c2c(C)nc3c(OCc4ccc(C(F)(F)F)cc4)cccn23)cc1` [CBK147380] the “% of control remaining” value was 107.879%.
With `Cc1cccc(C2NS(=O)(=O)NC2=N)c1` (centres unmarked) [CBK263868] the “% of control remaining” value was 100%.
In the case of `O=C(OCc1ccccc1)N1CCC(c2nc3ccc(Br)cc3[nH]2)CC1` [CBK153849], the “% of control remaining” value is reported as 133.725%.
`Cc1cc2c(cc1C)NC(CC(=O)Nc1ccc(N(C)C)cc1)C(=O)N2` (centres unmarked) [CBK265595] was tested, and the “% of control remaining” value was 100%.
With `O=C(Nc1cccc(F)c1C(=O)Nc1ccc(F)cc1F)c1cccs1` [CBK066849] the “% of control remaining” value was 139.109%.
`C=CCn1c(SCC(=O)Nc2sc3c(c2C#N)CCC3)nc2scc(-c3ccccc3)c2c1=O` [CBK264477] was tested, and the “% of control remaining” value was 126.138%.
For `CN1CC(C(=O)N2CCC(c3cc4ccccc4cn3)CC2)CC1=O` (centres unmarked) [CBK284870], the “% of control remaining” value was 115.218%.
With `OC(COc1cccc2ccccc12)CN1CCN(C(c2ccccc2)c2ccccc2)CC1` (centres unmarked) [CBK007591] the “% of control remaining” value was 142.599%.
For `CC(C(=O)N1CCC(c2nn(C)c3ncccc23)CC1)c1ccccc1` (centres unmarked) [CBK282166], the “% of control remaining” value was 115.66%.
In the case of `Cc1cc(C)c(S(=O)(=O)NCCN2CCN(S(=O)(=O)c3c(C)cc(C)cc3C)CC2)c(C)c1` [CBK265842], the “% of control remaining” value is reported as 118.886%.
In the case of `COCCNc1nc(-c2cccs2)cn2ccnc12` [CBK066408], the “% of control remaining” value is reported as 144.736%.
For `COc1ccc(CN2CC[C@H]3[C@@H](C2)[C@H](c2ccsc2)CN3C(=O)c2ccccc2)cc1` [CBK285614], the “% of control remaining” value was 80.4138%.
For `O=C(Cc1cc(F)cc(F)c1F)Nc1cccc2[nH]ccc12` [CBK159650], the “% of control remaining” value was 111.827%.
For `c1cncc(CCOc2nccnc2N2CCNCC2)c1` [CBK014992], the “% of control remaining” value was 141.642%.
In the case of `Cc1nc2ccccc2c(=O)n1CCC(=O)N1CCc2sccc2C1c1ccco1` (centres unmarked) [CBK285706], the “% of control remaining” value is reported as 129.567%.
`CCOc1ccc(-c2ncncc2-c2ccccc2)c(O)c1` [CBK288111] was tested, and the “% of control remaining” value was 152.769%.
In the case of `CNS(=O)(=O)c1ccc(C)c(NC(C)=O)c1C` [CBK034426], the “% of control remaining” value is reported as 127.15%.
`CC(C)C(=O)Nc1ccc2ccc(-c3ccc(C(C)(C)C)cc3)nc2n1` [CBK073669] was tested, and the “% of control remaining” value was 121.57%.
`O=C(Nc1nnc(-c2ccccc2)o1)C1COc2ccccc2O1` (centres unmarked) [CBK287596] was tested, and the “% of control remaining” value was 132.022%.
With `Cc1n[nH]c(=O)c2c(C)noc12` [CBK001281] the “% of control remaining” value was 104.437%.
